PubChem BioAssay AID1224830 | NIAID – 2016
Aim: 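Host factors that control LPS-induced TNF expression in human macrophages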 (primary screen). System: human THP-1 monocytic leukaemia cells, TNF dual-luciferase reporter clone, PMA-differentiated to macrophage-like cells. Reagents: siRNA pool against human genes, 50 nM. Timing: LPS for 4 h, given about 3 days after siRNA transfection. Conditions: bacterial LPS (TLR4 ligand), 10 ng/ml. Detection: 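Ratio of firefly to renilla light, scaled to the plate median and expressed as a robust z-score per replicate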. Reading the numbers: TNF reporter robust z-score: higher = stronger TNF reporter response to LPS. Call rule: 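Each well counts as active if its z-score is over 2.8 or under -1.5; controls are left without a call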.
This is a random part of about 18,000 deposited reagents. Over the whole deposit, about 2,900 (16%) were called active. 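Calls are made per well; low scores hint the gene aids the LPS response, high scores that it dampens it.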 Entries without a mark were called inactive. Repeated entries: four replicate wells of each siRNA pool. No sequences are given here.

gene | TNF reporter robust z-score
LGALSL (GeneID 29094) | -0.73
LGALSL (GeneID 29094) | -0.92
LGALSL (GeneID 29094) | -1.71 (active)
LGALSL (GeneID 29094) | -0.55
NDUFA13 (GeneID 51079) | -0.66
NDUFA13 (GeneID 51079) | -0.73
NDUFA13 (GeneID 51079) | -0.4
NDUFA13 (GeneID 51079) | 0.46
FITM2 (GeneID 128486) | 1.39
FITM2 (GeneID 128486) | 0.39
FITM2 (GeneID 128486) | 1.74
FITM2 (GeneID 128486) | 0.1
COL12A1 (GeneID 1303) | -0.16
COL12A1 (GeneID 1303) | 1.13
COL12A1 (GeneID 1303) | 1.03
COL12A1 (GeneID 1303) | 2.2
ANGEL2 (GeneID 90806) | 0.18
ANGEL2 (GeneID 90806) | -0.04
ANGEL2 (GeneID 90806) | 0.61
ANGEL2 (GeneID 90806) | 1.45
EIF5B (GeneID 9669) | -0.87
EIF5B (GeneID 9669) | 0.81
EIF5B (GeneID 9669) | -0.75
EIF5B (GeneID 9669) | -0.38
STAM (GeneID 8027) | 3.62 (active)
STAM (GeneID 8027) | 0.95
STAM (GeneID 8027) | 0.17
STAM (GeneID 8027) | 1.18
PHTF1 (GeneID 10745) | 22.1 (active)
PHTF1 (GeneID 10745) | 1.19
PHTF1 (GeneID 10745) | -0.47
PHTF1 (GeneID 10745) | 0.79
COA8 (GeneID 84334) | 1.37
COA8 (GeneID 84334) | 0.05
COA8 (GeneID 84334) | 2.32
COA8 (GeneID 84334) | 0.24
PLCB2 (GeneID 5330) | -0.49
PLCB2 (GeneID 5330) | 0.22
PLCB2 (GeneID 5330) | -0.64
PLCB2 (GeneID 5330) | -0.69
GRAMD1C (GeneID 54762) | 0.11
GRAMD1C (GeneID 54762) | 1.32
GRAMD1C (GeneID 54762) | -0.28
GRAMD1C (GeneID 54762) | 0.52
TLE1 (GeneID 7088) | -0.97
TLE1 (GeneID 7088) | 0.67
TLE1 (GeneID 7088) | -0.71
TLE1 (GeneID 7088) | -0.58
MAP6 (GeneID 4135) | 0.91
MAP6 (GeneID 4135) | 1.38
MAP6 (GeneID 4135) | 0.64
MAP6 (GeneID 4135) | 2.73
WDR82 (GeneID 80335) | 0.23
WDR82 (GeneID 80335) | 0.67
WDR82 (GeneID 80335) | -0.34
WDR82 (GeneID 80335) | -0.52
CEP350 (GeneID 9857) | -0.4
CEP350 (GeneID 9857) | -0.24
CEP350 (GeneID 9857) | 0.85
CEP350 (GeneID 9857) | -0.15
GOLM2 (GeneID 113201) | -0.91
GOLM2 (GeneID 113201) | -0.76
GOLM2 (GeneID 113201) | -0.5
GOLM2 (GeneID 113201) | -0.45
ZSWIM1 (GeneID 90204) | -0.19
ZSWIM1 (GeneID 90204) | -1.06
ZSWIM1 (GeneID 90204) | -1.68 (active)
ZSWIM1 (GeneID 90204) | -0.83
SSTR2 (GeneID 6752) | -0.11
SSTR2 (GeneID 6752) | 1.57
SSTR2 (GeneID 6752) | 0.81
SSTR2 (GeneID 6752) | 0.62
RMND5A (GeneID 64795) | -0.56
RMND5A (GeneID 64795) | -0.36
RMND5A (GeneID 64795) | -1.18
RMND5A (GeneID 64795) | -0.37
ABHD14A (GeneID 25864) | 1.42
ABHD14A (GeneID 25864) | -0.69
ABHD14A (GeneID 25864) | 0.01
ABHD14A (GeneID 25864) | 0.59
ANKRD34A (GeneID 284615) | 0.39
ANKRD34A (GeneID 284615) | 1.91
ANKRD34A (GeneID 284615) | 1.28
ANKRD34A (GeneID 284615) | 2.69
ATP6V1E2 (GeneID 90423) | 1.17
ATP6V1E2 (GeneID 90423) | 1.22
ATP6V1E2 (GeneID 90423) | 0.05
ATP6V1E2 (GeneID 90423) | 1.66
TSEN15 (GeneID 116461) | -0.52
TSEN15 (GeneID 116461) | -0.08
TSEN15 (GeneID 116461) | 1.01
TSEN15 (GeneID 116461) | -1.2
SPMIP3 (GeneID 200159) | -0.05
SPMIP3 (GeneID 200159) | 0.7
SPMIP3 (GeneID 200159) | 1.05
SPMIP3 (GeneID 200159) | -1.04
RPTOR (GeneID 57521) | 0.26
RPTOR (GeneID 57521) | 0.11
RPTOR (GeneID 57521) | -0.23
RPTOR (GeneID 57521) | 0.19
KRTAP10-9 (GeneID 386676) | 0.36
KRTAP10-9 (GeneID 386676) | 1.84
KRTAP10-9 (GeneID 386676) | 0.8
KRTAP10-9 (GeneID 386676) | 0.57
APOBEC3C (GeneID 27350) | -1.35
APOBEC3C (GeneID 27350) | -1.33
APOBEC3C (GeneID 27350) | -1.57 (active)
APOBEC3C (GeneID 27350) | -1.48
UBXN8 (GeneID 7993) | -0.6
UBXN8 (GeneID 7993) | 0.32
UBXN8 (GeneID 7993) | -1.47
UBXN8 (GeneID 7993) | -0.82

Hits, of those listed so far:
gene | TNF reporter robust z-score
LGALSL (GeneID 29094) | -1.71 (active)
STAM (GeneID 8027) | 3.62 (active)
PHTF1 (GeneID 10745) | 22.1 (active)
ZSWIM1 (GeneID 90204) | -1.68 (active)
APOBEC3C (GeneID 27350) | -1.57 (active)
